Reference: patent US20230110188A1 (ARGENX IIP, published 2023)
These are yes or no findings as the source states them, for the method shown. Some entries that bind do so weakly or less than the wild type. Sequences can lack the tags named with a protein.

T1: human monomeric MuSK FLAG streptavidin (in house produced, batch 27-6-2019) (human) (UniProt O15146)
T1 sequence: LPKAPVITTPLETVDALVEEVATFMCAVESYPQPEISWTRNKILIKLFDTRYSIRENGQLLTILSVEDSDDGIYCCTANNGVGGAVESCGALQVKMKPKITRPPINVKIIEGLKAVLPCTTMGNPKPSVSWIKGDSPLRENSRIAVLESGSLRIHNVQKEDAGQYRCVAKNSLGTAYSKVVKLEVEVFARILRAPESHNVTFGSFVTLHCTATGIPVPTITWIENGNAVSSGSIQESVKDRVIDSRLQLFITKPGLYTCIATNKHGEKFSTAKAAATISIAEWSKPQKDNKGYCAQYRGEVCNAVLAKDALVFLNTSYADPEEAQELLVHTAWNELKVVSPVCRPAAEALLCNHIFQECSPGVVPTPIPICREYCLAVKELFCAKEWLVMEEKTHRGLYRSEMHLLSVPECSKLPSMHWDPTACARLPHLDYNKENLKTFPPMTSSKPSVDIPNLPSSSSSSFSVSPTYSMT


How the values were obtained:
[1] = biological target: T1, human monomeric MuSK FLAG streptavidin (in house produced, batch 27-6-2019) (human); assay: ELISA, hMuSK Full ECD captured on anti-FLAG coat, antibody titrated, anti-human Fc HRP detection, OD450
[2] = biological target: T1, human monomeric MuSK FLAG streptavidin (in house produced, batch 27-6-2019) (human); assay: ELISA, FLAG-captured human monomeric MuSK

Row | binding [1] | binding [2] | Binder
1 | binds | binds | 3D10a (antibody, human IgG1, kappa, L234A L235A, V domains shown) VH: EVQLVESGGGLVKPGGSLRLSCAASGFTFSASTMAWVRQAPGKGLEWVSSVSGDSHHIYYADSLKGRFTISRDNAKNSLYLQMNSLRAEDTAVYYCARERLLRLGVGFDSWGQGTLVTVSS VL: DIQMTQSPSSLSASVGDRVTITCRASQRISGFVNWYQQKPGKAPKLLIYAASTLQSGVPSRFSGSGSGTDFTLTISSLQPEDFATYYCQQSYSPLYTFGQGTKLEIKR
2 | binds | binds | 4D3 (antibody, human IgG1, kappa, L234A L235A, V domains shown) VH: EVQLVESGGGLVKPGGSLRLSCAASGFTFSSYTMTWVRQAPGKGLEWVSSISSGGHYIYYTDSLKGRFTISRDNAKNSLYLQMNSLRAEDTAVYYCARERLLRLGVGFDFWGQGTLVTVSS VL: DIQMTQSPSSLSASVGDRVTITCRASQSISGYLNWYQQKPGKAPKLLIYAASTLQSGVPSRFSGSGSGTDFTLTISSLQPEDFATYYCQQSYSALYTFGQGTKLEIKR
3 | binds | binds | 3F6c (antibody, human IgG1, kappa, L234A L235A, V domains shown) VH: EVQLVESGGGLVKPGGSLRLSCAASGFTFSSYTMDWVRQAPGKGLEWVSSIGSNGDYIYYADSVRGRFTISRDNAKNSLYLQMNSLRAEDTAVYYCARGQLAVAGTHFDYWGQGTLVTVSS VL: DIQMTQSPSSLSASVGDRVTITCRASQKVNKYVNWYQQKPGKAPKLLIYAASTLQSGVPSRFSGSGSGTDFTLTISSLQPEDFATYYCQQSYSPLSTFGQGTKLEIKR
4 | binds | binds | 3D9b (antibody, human IgG1, kappa, L234A L235A, V domains shown) VH: EVQLVESGGGLVKPGGSLRLSCAASGFTFSTYTMHWVRQAPGKGLEWVSSISSRSAYKYYADSVKGRFTISRDNAKNSLYLQMNSLRAEDTAVYYCARDFFQLGPPRFDSWGQGTLVTVSS VL: DIQMTQSPSSLSASVGDRVTITCRASQRISSFLNWYQQKPGKAPKLLIYGASNLQSGVPSRFSGSGSGTDFTLTISSLQPEDFATYYCQQSYSPSYTFGQGTKLEIKR
5 | – | binds | 3B5 (antibody, V domains shown, also called 3B5wt) VH: QVQLVQSGAVVAKPGASVQVSCKTSGYTFTGQYLHWVRQAPGQGLEWIGWINPSSGVTKFAEKFEGRATMTRDTSITTAYIDLRSLRSDDTATYYCATLSLGVYYVGMVAWGQGTLVTVSS VL: ELTQPPSVSVSPGQTATITCSGDGLAQQHVYWFQQRPGQAPLLIIYKDIERPSGIPERFSGSSSGTTAMLTISGVQAEDEADYYCQSGDRTATSVLFGGGTKMTVLG
